Some of the results follow. The main result of the screen is listed elsewhere. These columns were measured beside it and carry no call. Compounds called inactive in the main read-out are mostly missing here. Potencies come from curve fits of mixed quality, noted in brackets.
Assay: qHTS Assay for Lipid Storage Modulators in Drosophila S3 Cells;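 on cell number change: cells counted by Cell Tracker Red CMTPX staining in the red channel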
Settings: BODIPY lipid droplet fluorescence, 18-24 h; for cell number change: measured here: cell count max response, cells fed with added oleic acid
How it was run: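 Drosophila S3 cells loaded with oleic acid (400 uM, as added) and compounds at several concentrations; lipid droplets imaged by 488-nm laser-scanning cytometry, 500–530 nm intensity and object ratio to cell channel. Percent activity normalized to 20 uM Triacsin C.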

[1] = measured here: lipid fluorescence (Fed channel) AC50, cells fed with added oleic acid
[2] = measured here: cell number channel AC50, cells fed with added oleic acid

| SMILES | cell number change [%] | AC50 [1] | AC50 [2] |
| --- | --- | --- | --- |
| COc1ccc(C(=O)N/N=C\c2coc3ccc(C)cc3c2=O)cc1 | 1.62 | 35500 nM [rising, single point] | – |
| O=S(=O)(c1ccccc1C(F)(F)F)N1CCC(n2cnc3ccccc32)CC1 | -45.7 | 517 nM [falling, full curve] | 2310 nM [falling, full curve] |
| O=C(Nc1ccc(N=Nc2ccccc2)cc1)c1cccc(Cl)c1 | -93 | – | 29100 nM [falling, single point] |
| O=C(C1=C(O)C(=O)N(CC2CCCO2)C1c1cccc(Cl)c1)c1ccco1 (stereo unspecified) | – | 231 nM [falling, full curve, poor fit] | – |
| COc1ccccc1NC(=O)Cc1noc(CSc2nnc(C)n2C)n1 | -14.6 | 25.9 nM [rising, full curve, poor fit] | 116 nM [rising, partial curve] |
| CCOC(=O)C1=C(N)OC2=C(C(=O)CC(C)(C)C2)C1c1ccco1 (stereo unspecified) | -13 | 18400 nM [falling, single point] | – |
| CCCN(C(=O)c1cnccn1)c1c(N)n(Cc2ccccc2)c(=O)[nH]c1=O | 17 | 29100 nM [rising, single point] | – |
| COc1cc(/C=C2/C(=O)ON=C2C)ccc1OCc1ccccc1F | – | 6510 nM [falling, single point] | – |
| Cc1c[n+]([O-])n(-c2ccc(C(=O)O)cc2)n1 | -6.08 | 4.11 nM [falling, full curve, poor fit] | – |
| COc1ccc(C(=O)N/C(=C\c2cn(C)c3ccccc23)C(=O)OCC(C)C)cc1 | 7.94 | 2310 nM [rising, full curve, poor fit] | – |
| CC(C)CCN1CCNC(=O)C1CC(=O)Nc1ccc(F)cc1 (stereo unspecified) | -18 | 1840 nM [rising, full curve, poor fit] | – |
| CCOc1ccc(N(CC(=O)NCc2ccc(Cl)cc2)S(=O)(=O)c2ccccc2)cc1 | 19.7 | – | – |
| Cc1ccc(NC(=O)COC(=O)c2ccc(CN3CCCC3=O)cc2)cc1C | 7.5 | – | – |
| CC(=O)N1N=C(c2ccncc2)OC1(Cc1ccccc1)Cc1ccccc1 | -31 | 18400 nM [falling, partial curve, poor fit] | 18400 nM [falling, single point] |
| COc1ccc(-n2c(=S)[nH]c3cc(C(=O)Nc4cc(OC)c(OC)c(OC)c4)ccc3c2=O)c(OC)c1 | -32.6 | – | 29100 nM [falling, single point] |
| CCOC(=O)/C=C/[C@H]1CCc2cccc(Cl)c2O1 | -31.4 | 820 nM [rising, single point] | 8200 nM [falling, partial curve] |
| COc1cc(C2/C(=C(\O)c3ccc4c(c3)CC(C)O4)C(=O)C(=O)N2CCCn2ccnc2)ccc1O (stereo unspecified) | -28.1 | 2310 nM [falling, full curve] | 651 nM [falling, full curve] |
| O=C(CSc1nnnn1C1CCCCC1)Nc1ccccc1F | 10.6 | 6510 nM [falling, single point] | – |
| CCCn1c(C(C)Nc2nc(C)cs2)nc2cc(Cl)c(Cl)cc21 (stereo unspecified) | 8.38 | – | – |
| Cc1ccccc1N(C(=O)CCC(=O)Nc1ccccn1)C(C(=O)NC(C)C)c1ccc(F)cc1 (stereo unspecified) | -4.76 | 580 nM [falling, single point] | – |
| Cc1cc(C)nc(Sc2ncnc(N)c2[N+](=O)[O-])n1 | -20 | – | – |
| COc1ccc(CNS(=O)(=O)c2cccc(S(=O)(=O)N3CCOCC3)c2)cc1 | 14.2 | 18400 nM [falling, partial curve] | – |
| O=C1CCC(=O)N1OCCOc1ccccc1 | 32.4 | 2590 nM [falling, full curve] | – |
| CCN(C(=O)C1CSC2(C)CCC(=O)N12)c1nc2c(C)cccc2s1 (stereo unspecified) | 44.5 | – | 29100 nM [rising, single point] |
| CC(C)(Cc1nc2ccccc2[nH]1)C(=O)O | – | 20600 nM [falling, partial curve] | – |
| CC(C)(C)OC(=O)NCc1ccc(CNC(=O)c2nc[nH]c2C(=O)N2CCN(C(=O)OC(C)(C)C)CC2)cc1 | -19.9 | 1160 nM [rising, single point] | – |
| O=C(NCC#CCSc1nnc(-c2cccc3ccccc23)o1)c1cccs1 | – | 259 nM [rising, full curve] | – |
| O=C(CCCCn1c(=O)c2ccccc2n(Cc2ccc(F)cc2)c1=O)NCc1ccco1 | -34.7 | 2060 nM [rising, partial curve, poor fit] | 16400 nM [falling, single point] |
| Cc1cc(C)c(C)c(S(=O)(=O)NCCN2CCOCC2)c1C | 1.85 | 6510 nM [rising, full curve] | – |

2 records drawn at random from the list so far:

| SMILES | cell number change [%] | AC50 [1] | AC50 [2] |
| --- | --- | --- | --- |
| CC(C)(Cc1nc2ccccc2[nH]1)C(=O)O | – | 20600 nM [falling, partial curve] | – |
| CCOc1ccc(N(CC(=O)NCc2ccc(Cl)cc2)S(=O)(=O)c2ccccc2)cc1 | 19.7 | – | – |
